The source of these data is PMC9071494.

Protein sequences, listed by entry. Tags and fused reporters are not part of them.
UniProt P50750: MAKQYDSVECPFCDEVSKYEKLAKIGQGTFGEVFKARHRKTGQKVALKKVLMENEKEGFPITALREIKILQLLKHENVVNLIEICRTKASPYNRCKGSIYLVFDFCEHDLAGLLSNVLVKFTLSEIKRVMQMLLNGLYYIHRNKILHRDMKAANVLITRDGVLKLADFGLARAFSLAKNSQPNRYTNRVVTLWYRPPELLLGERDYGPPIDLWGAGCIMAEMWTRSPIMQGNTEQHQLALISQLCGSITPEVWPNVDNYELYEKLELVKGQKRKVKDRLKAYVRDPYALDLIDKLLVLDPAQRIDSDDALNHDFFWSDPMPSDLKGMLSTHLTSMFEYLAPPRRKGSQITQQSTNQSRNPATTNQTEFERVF
UniProt Q15648: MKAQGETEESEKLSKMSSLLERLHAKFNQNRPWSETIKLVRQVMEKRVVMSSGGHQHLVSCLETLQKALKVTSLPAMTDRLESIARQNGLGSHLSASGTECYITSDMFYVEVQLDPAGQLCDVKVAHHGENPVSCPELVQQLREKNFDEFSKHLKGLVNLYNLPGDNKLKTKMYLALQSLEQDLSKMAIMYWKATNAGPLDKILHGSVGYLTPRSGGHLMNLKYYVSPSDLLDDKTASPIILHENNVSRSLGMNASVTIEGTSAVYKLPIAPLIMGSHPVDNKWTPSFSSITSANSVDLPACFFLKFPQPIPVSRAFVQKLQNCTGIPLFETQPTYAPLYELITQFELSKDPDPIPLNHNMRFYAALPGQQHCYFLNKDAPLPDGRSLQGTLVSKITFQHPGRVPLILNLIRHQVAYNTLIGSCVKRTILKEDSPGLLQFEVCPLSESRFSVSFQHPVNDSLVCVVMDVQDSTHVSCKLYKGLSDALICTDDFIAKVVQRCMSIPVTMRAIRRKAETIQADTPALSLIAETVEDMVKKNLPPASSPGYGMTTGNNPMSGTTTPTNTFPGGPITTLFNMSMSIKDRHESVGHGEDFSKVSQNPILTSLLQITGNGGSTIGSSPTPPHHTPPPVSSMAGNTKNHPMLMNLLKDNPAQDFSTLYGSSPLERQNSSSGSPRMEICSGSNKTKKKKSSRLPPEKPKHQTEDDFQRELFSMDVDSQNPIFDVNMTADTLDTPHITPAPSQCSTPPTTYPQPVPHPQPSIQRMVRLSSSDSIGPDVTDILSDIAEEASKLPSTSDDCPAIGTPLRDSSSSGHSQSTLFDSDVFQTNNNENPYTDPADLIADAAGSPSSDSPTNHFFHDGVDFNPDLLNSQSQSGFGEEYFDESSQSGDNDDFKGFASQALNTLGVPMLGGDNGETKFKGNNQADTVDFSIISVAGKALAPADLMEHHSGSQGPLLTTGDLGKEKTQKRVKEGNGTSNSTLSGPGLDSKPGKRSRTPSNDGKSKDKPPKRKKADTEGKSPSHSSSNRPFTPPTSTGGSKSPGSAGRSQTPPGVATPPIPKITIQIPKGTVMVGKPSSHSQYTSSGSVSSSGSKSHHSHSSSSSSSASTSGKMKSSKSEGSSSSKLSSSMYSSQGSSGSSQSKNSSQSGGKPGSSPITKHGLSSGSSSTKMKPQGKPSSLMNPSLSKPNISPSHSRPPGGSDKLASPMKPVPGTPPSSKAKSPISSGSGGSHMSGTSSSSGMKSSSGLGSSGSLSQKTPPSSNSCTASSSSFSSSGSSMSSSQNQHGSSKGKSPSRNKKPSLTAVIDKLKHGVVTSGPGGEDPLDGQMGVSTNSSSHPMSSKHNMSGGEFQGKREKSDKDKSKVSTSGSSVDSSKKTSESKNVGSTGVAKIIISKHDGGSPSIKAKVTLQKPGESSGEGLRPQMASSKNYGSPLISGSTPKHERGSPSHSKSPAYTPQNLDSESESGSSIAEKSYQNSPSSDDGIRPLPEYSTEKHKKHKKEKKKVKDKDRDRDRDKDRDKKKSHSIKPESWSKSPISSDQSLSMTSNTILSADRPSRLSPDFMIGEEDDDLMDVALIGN

These are yes or no findings as the source states them, for the method shown. In cells and extracts the contact can be indirect. Some binding calls cover weakened binding; strength is not graded here. For some assays here: Sequences can lack the tags named with a protein.

The target in one assay is T1, GST–MED31 (human) (UniProt Q9Y3C7).
T1 sequence: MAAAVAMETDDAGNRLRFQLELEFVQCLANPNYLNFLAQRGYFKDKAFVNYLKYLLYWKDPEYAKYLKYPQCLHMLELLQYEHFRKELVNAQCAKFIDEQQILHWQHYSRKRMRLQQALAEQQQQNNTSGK
Description: pull-down; GST fusion protein immobilised on magneGST particles, 5 μl of in vitro translated MED1 or RPB1, 200 μl magneGST binding/washing buffer, 1 h at 4°C, five washes; western blot for MED1 or RPB1; only the target purified. In general terms: A western blot detects proteins with antibodies after separation by electrophoresis.

Assay [1] deals with cyclin-dependent kinase 9 (human (endogenous in LNCaP-abl)) (UniProt P50750). As to the kind of experiment: co-IP; LNCaP-abl nuclear extracts diluted with 25 mM Tris pH 7.4, 0.15 M NaCl, 1 mM EDTA, 1% NP-40, 5% glycerol; CDK9 antibody on protein A beads 2 h at 4°C; washed with 50 mM Tris pH 8.0, 150 mM NaCl, 0.2% NP-40; blot for pMED1 and CDK9.

For “in vitro translated full-length MED1 (from UniProt Q15648 1-1581)”, the binding entry with GST–MED31 (human) was “binds”.

Take “phosphorylated MED1 (MED1 phosphorylated at threonine 1032) (from UniProt Q15648 1-1581)”: the binding result in assay [1] is recorded as “binds”.
